# From patent US20220031803A1, “ANTIBACTERIAL COMPOSITION COMPRISING MICROCIN S AND ANTIBIOTIC” (priority 2017, published 2022)
# At least one compound was matched to its structure with a doubt left.
# System: E. coli BL21 (DE3)+kan^R
# Format: cell-based, Escherichia coli
# Conditions: kanamycin-resistant E. coli strain, OD600 growth profile
smiles,measurement,value
"NC[C@H]1O[C@H](O[C@H]2[C@H](O)[C@@H](O[C@H]3O[C@H](CO)[C@@H](O)[C@H](N)[C@H]3O)[C@H](N)C[C@@H]2N)[C@H](O)[C@@H](O)[C@@H]1O [Kanamycin, kanamycin]",Antimicrobial action on bacterial growth (in words),no detectable antimicrobial action
